Assay results taken from paper PMC4638040.
No constants are given. Whether binding was seen depends on the method and setting. Some results given as binding are weak or reduced against the parent protein; the word gives no strength. For part of these data: Tags and fused reporters may be left off the sequences shown.

Sequences of proteins named here, by UniProt entry; tags and fusion partners are left off. A change or cut given only in a name is not applied to a line headed by its entry.
UniProt Q9UNE7: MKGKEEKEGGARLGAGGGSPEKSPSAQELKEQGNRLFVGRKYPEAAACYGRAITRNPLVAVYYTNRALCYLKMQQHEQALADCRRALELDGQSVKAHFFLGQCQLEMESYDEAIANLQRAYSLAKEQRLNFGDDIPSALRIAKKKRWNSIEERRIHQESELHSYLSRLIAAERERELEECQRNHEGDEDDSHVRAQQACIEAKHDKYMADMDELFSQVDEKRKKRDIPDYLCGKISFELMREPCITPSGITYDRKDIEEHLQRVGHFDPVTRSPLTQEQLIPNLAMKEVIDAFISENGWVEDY

Experiments:
[1] = molecular target: T1, GST-IRF-1 (pDEST-15-codon optimized IRF-1) (UniProt P10914); assay: ELISA; GST-IRF-1 (100 ng) immobilised on microtitre wells; His-CHIP in the mobile phase (fixed amount with DMSO or a titration of Hsp70 peptide, or a titration of His-CHIP wt or K30A); 25 mM HEPES pH 7.5, 50 mM KCl, 10 mM MgCl2, 5% glycerol, 0.1% Tween-20, 1 h at room temperature; detected with an anti-CHIP antibody; both purified
T1 sequence: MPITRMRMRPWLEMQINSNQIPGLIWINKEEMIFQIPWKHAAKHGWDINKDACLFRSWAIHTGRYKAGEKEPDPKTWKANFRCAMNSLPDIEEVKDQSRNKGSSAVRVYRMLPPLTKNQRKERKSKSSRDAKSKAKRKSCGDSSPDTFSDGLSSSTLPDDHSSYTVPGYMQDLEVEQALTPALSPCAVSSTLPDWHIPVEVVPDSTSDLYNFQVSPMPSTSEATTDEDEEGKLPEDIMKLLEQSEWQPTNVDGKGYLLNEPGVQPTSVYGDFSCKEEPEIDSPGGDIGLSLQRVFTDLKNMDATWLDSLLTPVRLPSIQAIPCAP

[2] = molecular target: T2, Hsp70 C-terminal peptide GPTIEEVD (residues 634-641), biotin-SGSG at the N terminus; assay: AlphaScreen or HTRF; biotin-tagged Hsp70 peptide (6.25 ng) on streptavidin donor beads; titration (0-100 ng) of His-CHIP wt or K30A on protein-A acceptor beads by anti-His mAb; 1 h at room temperature; both purified
T2 sequence (peptide, biotin at the N terminus): SGSGGPTIEEVD

Substance | binding [1] | binding [2]
Carboxy-terminus of Hsc70-interacting protein (CHIP), His-tagged, K30A mutant (from UniProt Q9UNE7 1-303) (enzyme) | binds | –
Carboxy-terminus of Hsc70-interacting protein (CHIP), His-tagged, wild type (from UniProt Q9UNE7 1-303) (enzyme) | binds | binds
